Assay results taken from PMC8429552.
No constants are given. Whether binding was seen depends on the method and setting. Binding seen in cells or lysates may run through a third protein. Some entries that bind do so weakly or less than the wild type.

Amino acid sequences for entries named in this document (tags omitted).
UniProt P60953: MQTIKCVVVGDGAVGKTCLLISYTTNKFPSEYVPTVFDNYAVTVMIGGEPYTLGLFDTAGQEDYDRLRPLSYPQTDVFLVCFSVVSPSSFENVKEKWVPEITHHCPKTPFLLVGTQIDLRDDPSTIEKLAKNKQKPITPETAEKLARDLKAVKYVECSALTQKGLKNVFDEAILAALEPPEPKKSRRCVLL
UniProt O00401: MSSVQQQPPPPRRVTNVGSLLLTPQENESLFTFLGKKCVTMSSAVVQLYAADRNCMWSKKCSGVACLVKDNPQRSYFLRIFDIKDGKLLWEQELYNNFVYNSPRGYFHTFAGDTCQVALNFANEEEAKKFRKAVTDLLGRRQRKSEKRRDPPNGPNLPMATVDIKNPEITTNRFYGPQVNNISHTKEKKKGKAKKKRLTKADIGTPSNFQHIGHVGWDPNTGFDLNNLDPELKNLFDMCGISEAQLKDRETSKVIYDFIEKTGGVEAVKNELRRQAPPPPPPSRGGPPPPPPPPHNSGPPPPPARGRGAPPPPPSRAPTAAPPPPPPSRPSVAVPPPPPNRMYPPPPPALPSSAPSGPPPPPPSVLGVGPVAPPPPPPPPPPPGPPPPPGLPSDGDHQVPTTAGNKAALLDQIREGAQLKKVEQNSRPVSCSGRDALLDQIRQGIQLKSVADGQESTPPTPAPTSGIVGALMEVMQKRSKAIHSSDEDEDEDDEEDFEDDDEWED

Target: Flag-tagged wild-type Cdc42 (human) (UniProt P60953)
Assay: co-IP; Flag-tagged Cdc42 precipitated from HEK293 lysate on anti-Flag M2-agarose (co-IP buffer, 4 °C, 90 min), Western blot; for the effectors cells were in serum-free medium overnight, then basal or given 10 ng/ml EGF or 50 ng/ml PMA for 2 min

Q: N-WASP (from UniProt O00401 1-505) was tested. Which binding did it give?
A: Its binding is “binds”.
